Results as given in patent US10842152B2, “Isothiazolo-based bicycles, processes for their preparation and their use as herbicides and/or plant growth regulators” (Bayer CropScience Aktiengesellschaft, priority 2017, dated 2020).
Some entries share one result that the patent states for a list of compounds.

Experiments:
[1] = system: Sphaerotheca fuliginea; experiment: In vivo preventive test on Sphaerotheca fuliginea (powdery mildew on cucurbits); details: gherkin, evaluated 15 days after inoculation
[2] = system: Botrytis cinerea; experiment: In vivo preventive test on Botrytis cinerea (grey mould); details: gherkin, evaluated 4 to 5 days after inoculation
[3] = system: Puccinia recondita; experiment: In vivo preventive test on Puccinia recondita (brown rust on wheat); details: evaluated 11 days after inoculation
[4] = system: Septoria tritici; experiment: In vivo preventive test on Septoria tritici (leaf spot on wheat); details: 500 ppm of active ingredient, evaluated 24 days after inoculation

| SMILES | efficacy ([3]; 100 ppm of active ingredient) | efficacy [4] | further results |
| --- | --- | --- | --- |
| C=CCO/N=C(/C)c1cn(CC2CCCCC2)c(=O)c2snc(N)c12 [Example I-168] | – | – | efficacy ([1]; 100 ppm of active ingredient): at least 70%; efficacy ([2]; 500 ppm of active ingredient): at least 70%; efficacy ([3]; 500 ppm of active ingredient): at least 70% |
| O=C(Nc1nsc2c(=O)n(CC3CCCCC3Cl)cc(Cl)c12)C(F)F (racemic) [Example I-160] | at least 70% | – | – |
| CC(=O)c1cn(CC2CCCCC2)c(=O)c2c1c(N)n[s+]2[O-] (stereo not drawn) [Example I-157] | – | – | efficacy ([1]; 500 ppm of active ingredient): at least 70% |
| Nc1nsc2c(=O)n(Cc3cc(F)c(F)cc3F)cc(F)c12 [Example I-163] | at least 70% | at least 70% | – |
| CCC(=O)Nc1nsc2c(=O)n(CC3CCCCC3)cc(F)c12 [Example I-128] | – | – | efficacy ([2]; 500 ppm of active ingredient): at least 70% |
| CC(C)c1cc2c(NC(=O)C(F)(F)C(F)(F)F)nsc2c(=O)n1CC1CCCCC1 [Example I-021, N-[6-(cyclohexylmethyl)-5-isopropyl-7-oxo-isothiazolo[5,4-c]pyridin-3-yl]-2,2,3,3,3-pentafluoro-propanamide] | – | at least 70% | – |
| C/C(=N/OCC1CC1)c1cn(CC2CCCCC2)c(=O)c2snc(N)c12 [Example I-167] | – | – | efficacy ([2]; 100 ppm of active ingredient): at least 70% |
| Nc1nsc2c(=O)n(CC3CCCCC3Cl)cc(Cl)c12 (racemic) [Example I-156] | at least 70% | – | – |
| CC(C)CC#Cc1cn(CC2CCCCC2)c(=O)c2snc(N)c12 [Example I-106] | – | at least 70% | – |
| COC(=O)CO/N=C(/C)c1cn(CC2CCCCC2)c(=O)c2snc(N)c12 [Example I-166] | – | – | efficacy ([1]; 500 ppm of active ingredient): at least 70%; efficacy ([2]; 500 ppm of active ingredient): at least 70% |
| CCc1cc2c(NC(=O)C(F)(F)C(F)(F)F)nsc2c(=O)n1CC1CCCCC1 [Example I-030] | – | – | efficacy ([2]; 500 ppm of active ingredient): at least 70% |
| Nc1nsc2c(=O)n(CC3CCCCC3Cl)cc(F)c12 (racemic) [Example I-182] | at least 70% | – | – |
| CC(=O)c1cn(CC2CCCCC2)c(=O)c2c1C(N)=NS2(=O)=O [Example I-158] | – | – | efficacy ([3]; 500 ppm of active ingredient): at least 70% |
| Nc1nsc2c(=O)n(Cc3cc(F)c(F)cc3F)c(-c3ccc(Cl)cc3)cc12 [Example I-073] | – | at least 70% | – |
| CC(C)c1cc2c(N)nsc2c(=O)n1CC1CCCCC1 [Example I-023, 3-amino-6-(cyclohexylmethyl)-5-isopropyl-isothiazolo[5,4-c]pyridin-7-one] | – | at least 70% | – |
| Nc1nsc2c(=O)n(CC3CCCCC3)cc(Br)c12 [Example I-054, 3-amino-4-bromo-6-(cyclohexylmethyl)isothiazolo[5,4-c]pyridin-7-one] | at least 70% | – | – |
| Nc1nsc2c(=O)n(CC3CCCCC3)cc(Cl)c12 [Example I-064] | at least 70% | – | – |
| O=C(Nc1nsc2c(=O)n(CC3CCCCC3)c(C3CC3)cc12)C(F)(F)C(F)(F)F [Example I-022] | – | at least 70% | – |
| C/C(=N/OC(C)C)c1cn(CC2CCCCC2)c(=O)c2snc(N)c12 [Example I-169] | – | – | efficacy ([1]; 500 ppm of active ingredient): at least 70%; efficacy ([2]; 500 ppm of active ingredient): at least 70% |
